Measured values from the supplement of paper PMC6411743.
± gives the standard deviation of the averaged measurements. This is a selection; strong and weak results do not stand in their true shares.

The chains behind the UniProt entries cited, without tags or fusion partners. Where a name states a change or a piece, a line headed by the entry shows the natural chain unless it says otherwise.
UniProt P78330: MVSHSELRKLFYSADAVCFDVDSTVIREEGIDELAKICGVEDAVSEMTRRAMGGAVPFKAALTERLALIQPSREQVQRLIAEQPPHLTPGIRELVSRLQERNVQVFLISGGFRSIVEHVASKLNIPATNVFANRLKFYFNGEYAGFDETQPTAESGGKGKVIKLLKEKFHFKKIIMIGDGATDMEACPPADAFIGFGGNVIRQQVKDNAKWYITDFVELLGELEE
UniProt P57740: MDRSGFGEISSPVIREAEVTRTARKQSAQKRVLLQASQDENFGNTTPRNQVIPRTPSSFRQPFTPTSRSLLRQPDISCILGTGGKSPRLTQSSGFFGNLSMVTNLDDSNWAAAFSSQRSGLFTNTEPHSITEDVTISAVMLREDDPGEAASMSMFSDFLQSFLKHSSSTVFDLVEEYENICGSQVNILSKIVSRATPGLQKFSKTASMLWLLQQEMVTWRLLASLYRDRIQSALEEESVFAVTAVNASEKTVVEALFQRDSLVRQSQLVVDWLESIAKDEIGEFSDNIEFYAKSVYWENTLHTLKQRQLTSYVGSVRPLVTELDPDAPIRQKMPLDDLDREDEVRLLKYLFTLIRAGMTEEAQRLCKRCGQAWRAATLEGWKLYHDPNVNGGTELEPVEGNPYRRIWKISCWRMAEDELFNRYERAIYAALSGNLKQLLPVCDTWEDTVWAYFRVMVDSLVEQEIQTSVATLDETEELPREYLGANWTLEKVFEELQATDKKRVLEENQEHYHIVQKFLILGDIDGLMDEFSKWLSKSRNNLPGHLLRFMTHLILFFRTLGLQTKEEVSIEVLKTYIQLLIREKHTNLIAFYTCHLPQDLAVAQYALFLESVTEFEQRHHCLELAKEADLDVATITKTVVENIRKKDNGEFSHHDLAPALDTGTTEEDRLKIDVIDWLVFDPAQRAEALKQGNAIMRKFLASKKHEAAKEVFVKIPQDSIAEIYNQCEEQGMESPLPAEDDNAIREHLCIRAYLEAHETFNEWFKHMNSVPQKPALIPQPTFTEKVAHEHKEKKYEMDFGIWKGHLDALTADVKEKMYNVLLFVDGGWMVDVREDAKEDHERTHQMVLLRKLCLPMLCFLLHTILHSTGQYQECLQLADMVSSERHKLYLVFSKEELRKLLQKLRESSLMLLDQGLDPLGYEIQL
UniProt P53350, whole entry: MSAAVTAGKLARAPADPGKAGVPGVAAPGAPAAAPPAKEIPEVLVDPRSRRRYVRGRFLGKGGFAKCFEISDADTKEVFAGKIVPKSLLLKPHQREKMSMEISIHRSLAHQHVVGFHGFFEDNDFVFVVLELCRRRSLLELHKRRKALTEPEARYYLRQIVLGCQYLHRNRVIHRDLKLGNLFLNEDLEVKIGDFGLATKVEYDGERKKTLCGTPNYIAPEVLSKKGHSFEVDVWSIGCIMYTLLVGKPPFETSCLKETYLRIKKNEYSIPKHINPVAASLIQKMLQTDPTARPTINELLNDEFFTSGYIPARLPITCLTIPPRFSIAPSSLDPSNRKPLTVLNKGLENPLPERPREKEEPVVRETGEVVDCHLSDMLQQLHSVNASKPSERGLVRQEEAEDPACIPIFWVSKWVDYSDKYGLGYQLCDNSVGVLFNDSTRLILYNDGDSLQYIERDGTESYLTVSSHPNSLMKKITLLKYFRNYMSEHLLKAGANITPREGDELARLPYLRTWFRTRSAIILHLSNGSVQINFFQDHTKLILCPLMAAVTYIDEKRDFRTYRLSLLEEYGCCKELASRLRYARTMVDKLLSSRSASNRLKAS
UniProt P67809, whole entry: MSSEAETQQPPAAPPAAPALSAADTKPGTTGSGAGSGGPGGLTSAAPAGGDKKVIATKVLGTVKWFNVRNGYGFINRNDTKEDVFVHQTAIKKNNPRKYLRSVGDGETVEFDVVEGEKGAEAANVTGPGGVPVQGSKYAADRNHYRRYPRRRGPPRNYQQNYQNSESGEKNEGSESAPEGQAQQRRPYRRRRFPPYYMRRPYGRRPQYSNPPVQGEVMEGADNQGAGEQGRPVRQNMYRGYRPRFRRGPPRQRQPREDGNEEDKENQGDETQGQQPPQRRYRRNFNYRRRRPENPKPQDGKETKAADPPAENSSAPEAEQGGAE
UniProt Q00535, whole entry, looked up: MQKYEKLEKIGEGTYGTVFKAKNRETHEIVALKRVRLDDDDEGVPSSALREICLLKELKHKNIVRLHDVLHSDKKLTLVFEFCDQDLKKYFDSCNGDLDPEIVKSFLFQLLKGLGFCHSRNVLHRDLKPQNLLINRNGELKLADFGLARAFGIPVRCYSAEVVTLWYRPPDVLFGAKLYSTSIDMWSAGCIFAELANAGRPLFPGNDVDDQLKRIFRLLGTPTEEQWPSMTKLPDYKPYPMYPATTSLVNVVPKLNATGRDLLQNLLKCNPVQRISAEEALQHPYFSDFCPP
UniProt P53778: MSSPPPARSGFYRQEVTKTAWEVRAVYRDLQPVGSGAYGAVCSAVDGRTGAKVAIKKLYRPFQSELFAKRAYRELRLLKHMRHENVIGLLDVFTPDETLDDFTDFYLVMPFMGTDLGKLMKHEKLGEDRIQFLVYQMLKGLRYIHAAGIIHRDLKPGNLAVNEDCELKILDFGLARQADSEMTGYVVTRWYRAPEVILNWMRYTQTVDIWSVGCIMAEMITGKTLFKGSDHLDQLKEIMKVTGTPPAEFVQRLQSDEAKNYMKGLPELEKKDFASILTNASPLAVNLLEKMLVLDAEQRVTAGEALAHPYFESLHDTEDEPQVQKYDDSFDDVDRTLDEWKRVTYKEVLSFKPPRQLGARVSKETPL
UniProt P56199, whole entry: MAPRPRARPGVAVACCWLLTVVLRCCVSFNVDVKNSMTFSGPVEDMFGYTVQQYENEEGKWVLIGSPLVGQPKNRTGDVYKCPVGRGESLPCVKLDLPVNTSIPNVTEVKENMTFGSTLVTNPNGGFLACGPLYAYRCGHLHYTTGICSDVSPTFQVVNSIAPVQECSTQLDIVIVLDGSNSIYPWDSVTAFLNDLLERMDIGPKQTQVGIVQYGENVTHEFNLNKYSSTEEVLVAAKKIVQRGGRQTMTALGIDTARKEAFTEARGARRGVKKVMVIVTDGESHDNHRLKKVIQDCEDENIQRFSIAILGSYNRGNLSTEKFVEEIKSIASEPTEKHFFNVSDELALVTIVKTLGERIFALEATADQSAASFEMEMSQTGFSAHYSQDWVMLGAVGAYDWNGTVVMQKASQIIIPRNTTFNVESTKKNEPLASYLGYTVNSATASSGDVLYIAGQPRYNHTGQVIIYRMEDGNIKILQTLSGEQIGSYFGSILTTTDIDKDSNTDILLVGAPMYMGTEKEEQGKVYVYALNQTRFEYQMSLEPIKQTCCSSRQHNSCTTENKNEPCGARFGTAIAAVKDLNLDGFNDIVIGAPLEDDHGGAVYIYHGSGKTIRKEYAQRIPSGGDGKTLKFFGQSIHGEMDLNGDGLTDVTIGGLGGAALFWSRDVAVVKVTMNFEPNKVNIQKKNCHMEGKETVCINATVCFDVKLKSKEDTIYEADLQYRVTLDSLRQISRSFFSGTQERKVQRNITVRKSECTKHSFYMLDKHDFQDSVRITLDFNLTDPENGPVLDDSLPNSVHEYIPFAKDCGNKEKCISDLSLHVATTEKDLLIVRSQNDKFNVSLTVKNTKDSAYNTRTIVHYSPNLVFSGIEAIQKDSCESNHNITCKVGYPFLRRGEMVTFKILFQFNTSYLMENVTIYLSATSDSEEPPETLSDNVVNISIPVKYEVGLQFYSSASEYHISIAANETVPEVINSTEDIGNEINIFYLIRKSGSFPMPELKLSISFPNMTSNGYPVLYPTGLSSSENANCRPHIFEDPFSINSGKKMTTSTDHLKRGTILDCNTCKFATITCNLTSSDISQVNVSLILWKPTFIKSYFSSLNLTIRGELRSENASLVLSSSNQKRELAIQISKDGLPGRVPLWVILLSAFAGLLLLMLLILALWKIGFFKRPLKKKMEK
UniProt P62312: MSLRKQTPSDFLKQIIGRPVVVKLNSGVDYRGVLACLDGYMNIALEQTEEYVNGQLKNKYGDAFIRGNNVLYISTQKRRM
UniProt P61244, whole entry: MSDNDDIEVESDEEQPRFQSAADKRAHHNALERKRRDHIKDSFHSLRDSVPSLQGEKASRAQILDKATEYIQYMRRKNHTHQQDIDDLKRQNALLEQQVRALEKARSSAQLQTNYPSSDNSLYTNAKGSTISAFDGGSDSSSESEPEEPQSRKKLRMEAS
UniProt P61009: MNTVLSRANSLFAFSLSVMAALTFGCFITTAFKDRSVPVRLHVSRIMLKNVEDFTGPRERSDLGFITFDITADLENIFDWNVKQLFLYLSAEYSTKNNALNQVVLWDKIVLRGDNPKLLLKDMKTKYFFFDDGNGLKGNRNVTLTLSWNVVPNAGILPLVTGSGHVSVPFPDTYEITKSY
UniProt P82970: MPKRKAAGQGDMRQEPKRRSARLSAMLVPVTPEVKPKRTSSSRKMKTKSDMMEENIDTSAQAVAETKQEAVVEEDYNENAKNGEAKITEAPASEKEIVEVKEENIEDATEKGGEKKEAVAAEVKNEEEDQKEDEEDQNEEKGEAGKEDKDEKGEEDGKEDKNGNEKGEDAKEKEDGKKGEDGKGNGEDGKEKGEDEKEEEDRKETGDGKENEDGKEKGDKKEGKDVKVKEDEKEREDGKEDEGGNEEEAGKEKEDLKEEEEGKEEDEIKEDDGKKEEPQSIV

Compound: Nc1ncnc2c1ncn2[C@@H]1O[C@H](COP(=O)(O)OP(=O)(O)OP(=O)(O)O)[C@@H](O)[C@H]1O [adenosine triphosphate]
Assay: NP40-soluble protein abundance relative to vehicle (solubility fold change) (ratio); higher = more soluble protein in presence of ATP
How it was run: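 Data come from three independent experiments in which Dounce-homogenised Jurkat crude lysate was treated at eight concentrations from 0.1 to 10 mM. Treatment ran 10 min at room temperature and then 3 min at 37 °C, after which 0.8% NP40 and benzonase were added for 60 min at 4 °C before ultracentrifugation. The supernatant underwent TMT labelling and LC-MS/MS, and vsn-normalised intensities were expressed as fold change against the detergent-processed vehicle in each replicate.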

Target | NP40-soluble protein abundance (concentration: 1mM) | NP40-soluble protein abundance (concentration: 2mM) | NP40-soluble protein abundance (concentration: 4mM) | NP40-soluble protein abundance (concentration: 6mM) | NP40-soluble protein abundance (concentration: 8mM) | NP40-soluble protein abundance (concentration: 10mM)
UniProt P78330 and related entries | 0.906 ± 0.03 | 0.921 ± 0.035 | 0.895 ± 0.015 | 0.9 ± 0.08 | 0.891 ± 0.056 | 0.882 ± 0.048
NUP107 (UniProt P57740) | 1.08 ± 0.061 | 1.04 ± 0.047 | 1.06 ± 0.06 | 1.05 ± 0.065 | 1.1 ± 0.069 | 1.11 ± 0.056
PLK1 (UniProt P53350) | 0.941 ± 0.048 | 0.947 ± 0.055 | 0.976 ± 0.11 | 0.928 ± 0.037 | 1.05 ± 0.062 | 1.03 ± 0.023
UniProt P61978 and related entries | 0.97 ± 0.054 | 0.957 ± 0.041 | 0.922 ± 0.037 | 0.986 ± 0.032 | 0.9332 ± 0.0087 | 0.939 ± 0.012
YBX1 (UniProt P67809) | 1.01 ± 0.097 | 1.01 ± 0.035 | 0.995 ± 0.051 | 1.06 ± 0.067 | 0.977 ± 0.038 | 0.96 ± 0.025
CDK5 (UniProt Q00535) | 1.01 ± 0.025 | 0.991 ± 0.028 | 0.992 ± 0.021 | 0.948 ± 0.089 | 0.985 ± 0.035 | 0.975 ± 0.044
UniProt P53778 and related entries | 0.971 ± 0.086 | 0.968 ± 0.065 | 1.01 ± 0.077 | 0.911 ± 0.11 | 0.995 ± 0.066 | 1.04 ± 0.13
ITGA1 (UniProt P56199) | 0.94 ± 0.053 | 0.926 ± 0.044 | 0.996 ± 0.061 | 0.989 ± 0.012 | 0.8962 ± 0.0068 | 0.915 ± 0.029
UniProt P62312 | 0.948 ± 0.059 | 0.971 ± 0.043 | 0.912 ± 0.03 | 0.929 ± 0.027 | 0.921 ± 0.042 | 0.896 ± 0.039
UniProt P62805 | 0.852 ± 0.077 | 0.826 ± 0.06 | 0.835 ± 0.066 | 0.843 ± 0.081 | 0.861 ± 0.058 | 1.01 ± 0.17
UniProt P62487 | 1.06 ± 0.099 | 1.09 ± 0.11 | 1.05 ± 0.14 | 1.06 ± 0.089 | 1.04 ± 0.15 | 1.03 ± 0.098
MAX (UniProt P61244) | 0.836 ± 0.13 | 0.756 ± 0.099 | 0.741 ± 0.11 | 0.724 ± 0.091 | 0.725 ± 0.055 | 0.644 ± 0.15
UniProt P61009 | 0.99 ± 0.05 | 1.01 ± 0.069 | 0.973 ± 0.031 | 0.933 ± 0.085 | 0.916 ± 0.035 | 0.978 ± 0.065
UniProt P82970 | 0.891 ± 0.088 | 0.878 ± 0.045 | 0.843 ± 0.061 | 0.921 ± 0.046 | 0.867 ± 0.02 | 0.842 ± 0.077

Quoted at random: 2 entries already listed.
Target | NP40-soluble protein abundance (concentration: 1mM) | NP40-soluble protein abundance (concentration: 2mM) | NP40-soluble protein abundance (concentration: 4mM) | NP40-soluble protein abundance (concentration: 6mM) | NP40-soluble protein abundance (concentration: 8mM) | NP40-soluble protein abundance (concentration: 10mM)
YBX1 (UniProt P67809) | 1.01 ± 0.097 | 1.01 ± 0.035 | 0.995 ± 0.051 | 1.06 ± 0.067 | 0.977 ± 0.038 | 0.96 ± 0.025
ITGA1 (UniProt P56199) | 0.94 ± 0.053 | 0.926 ± 0.044 | 0.996 ± 0.061 | 0.989 ± 0.012 | 0.8962 ± 0.0068 | 0.915 ± 0.029
